Source: article doi:10.1101/370387 (bioRxiv, 2018)
No constants are given. Whether binding was seen depends on the method and setting. Binding calls can cover weak binding; strength is not graded here.

Biological target: sarco-endoplasmic reticulum Ca2+-ATPase (SERCA)
Experiment: cryo-EM structure

B1: phospholamban Asn27-Ala mutant (canine PLN sequence), super-inhibitory pentameric form (protein, UniProt P61012 1-52)
chain: MDKVQYLTRSAIRRASTIEMPQQARQALQNLFINFCLILICLLLICIIVMLL
  binding: binds
